Patent US9963451B2, “Fused ring pyrimidine compound and pest control agent containing the same” (Mitsui Chemicals Agro, Inc., priority 2013, dated 2018)
Some of these results come from one statement about several compounds together.

Experiments:
Myzus persicae = test: Test Example 2: insecticidal test against Myzus persicae (root immersion and leaf spray of young white radish plant); format: in vivo; settings: 100 ppm root immersion and 1000 ppm leaf spray, 1-stage larvae, 25° C., after 5 days
Laodelphax striatellus = test: Test Example 1: insecticidal test against Laodelphax striatellus (root immersion and leaf spray of young rice plant); format: in vivo; settings: 100 ppm root immersion and 1000 ppm leaf spray, 25° C., after 6 days

SMILES: Cc1cc(=O)n2nc(SC(C)C)cc2n1Cc1ccc(Cl)nc1 [compound 255]
- insect death ratio (Myzus persicae): ≥ 70%
- insect death ratio (Laodelphax striatellus): ≥ 70%

SMILES: Cc1cc(=O)n2nc(Cl)cc2n1Cc1cnc(Cl)c(F)c1 [compound 324]
- insect death ratio (Myzus persicae): ≥ 70%
- insect death ratio (Laodelphax striatellus): ≥ 70%

SMILES: CSc1nc2n(Cc3cnc(Cl)c(Br)c3)c(C)cc(=O)n2n1 [compound 310]
- insect death ratio (Myzus persicae): ≥ 70%
- insect death ratio (Laodelphax striatellus): ≥ 70%

SMILES: CCc1cc(=O)n2nc(SC)cc2n1Cc1ccc(Cl)nc1 [compound 228]
- insect death ratio (Myzus persicae): ≥ 70%
- insect death ratio (Laodelphax striatellus): ≥ 70%

SMILES: CCCC[S+]([O-])c1cc2n(Cc3ccc(Cl)nc3)c(C)cc(=O)n2n1 (stereo not drawn) [compound 340]
- insect death ratio (Myzus persicae): ≥ 70%
- insect death ratio (Laodelphax striatellus): ≥ 70%

SMILES: CCSc1cc2n(Cc3ccc(Cl)nc3)c(C)cc(=O)n2n1 [compound 243]
- insect death ratio (Myzus persicae): ≥ 70%
- insect death ratio (Laodelphax striatellus): ≥ 70%

SMILES: Cc1cc(=O)n2nc(Oc3ccc([N+](=O)[O-])cc3)cc2n1Cc1ccc(Cl)nc1 [compound 334]
- insect death ratio (Myzus persicae): ≥ 70%
- insect death ratio (Laodelphax striatellus): ≥ 70%

SMILES: CCC(C)[S+]([O-])c1cc2n(Cc3ccc(Cl)nc3)c(C)cc(=O)n2n1 (stereo not drawn) [compound 342]
- insect death ratio (Myzus persicae): ≥ 70%
- insect death ratio (Laodelphax striatellus): ≥ 70%

SMILES: CSc1nc2n(Cc3ccc(Cl)nc3)c(C)c/c(=N\OC(C)=O)n2n1 [compound 182]
- insect death ratio (Myzus persicae): ≥ 70%
- insect death ratio (Laodelphax striatellus): ≥ 70%

SMILES: CSc1cc2n(Cc3cnc(Cl)c(C(F)(F)F)c3)c(C)cc(=O)n2n1 [compound 319]
- insect death ratio (Myzus persicae): ≥ 70%
- insect death ratio (Laodelphax striatellus): ≥ 70%

SMILES: COCN(C)c1nc2n(Cc3ccc(Cl)nc3)c(C)cc(=O)n2n1 [compound 62]
- insect death ratio (Myzus persicae): ≥ 70%
- insect death ratio (Laodelphax striatellus): ≥ 70%

SMILES: Cc1cc(=O)n2nc(OC(C)C)cc2n1Cc1ccc(Cl)nc1 [compound 322]
- insect death ratio (Myzus persicae): ≥ 70%
- insect death ratio (Laodelphax striatellus): ≥ 70%

SMILES: CCc1cc(=O)n2nc(SC)nc2n1Cc1ccc(Cl)nc1 [compound 12]
- insect death ratio (Myzus persicae): ≥ 70%
- insect death ratio (Laodelphax striatellus): ≥ 70%

SMILES: CSc1cc2n(Cc3cnc(Cl)s3)ccc(=O)n2n1 [compound 219]
- insect death ratio (Myzus persicae): ≥ 70%
- insect death ratio (Laodelphax striatellus): ≥ 70%

SMILES: C#CCOc1nc2n(Cc3ccc(Cl)nc3)c(C)cc(=O)n2n1 [compound 97]
- insect death ratio (Myzus persicae): ≥ 70%
- insect death ratio (Laodelphax striatellus): ≥ 70%

SMILES: CCc1cc(=O)n2nc(SC)cc2n1Cc1cnc(Cl)s1 [compound 229]
- insect death ratio (Myzus persicae): ≥ 70%
- insect death ratio (Laodelphax striatellus): ≥ 70%

SMILES: CCS(=O)(=O)c1cc2n(Cc3cnc(Cl)c(F)c3)c(C)cc(=O)n2n1 [compound 261]
- insect death ratio (Myzus persicae): ≥ 70%
- insect death ratio (Laodelphax striatellus): ≥ 70%

SMILES: CCC(c1ccc(Cl)nc1)n1c(C)cc(=O)n2nc(SC)cc12 (stereo not drawn) [compound 230]
- insect death ratio (Myzus persicae): ≥ 70%
- insect death ratio (Laodelphax striatellus): ≥ 70%

SMILES: CSc1nc2n(Cc3ccc(Cl)nc3)c(C)c/c(=N\O)n2n1 [compound 121, 4-((6-chloropyridin-3-yl)methyl)-5-methyl-2-(methylthio)-[1,2,4]triazolo[1,5-a]pyrimidin-7(4H)-oneoxime]
- insect death ratio (Myzus persicae): ≥ 70%
- insect death ratio (Laodelphax striatellus): ≥ 70%

SMILES: CSc1nc2n(Cc3cnc(Cl)cc3Cl)c(C)cc(=O)n2n1 [compound 296]
- insect death ratio (Myzus persicae): ≥ 70%
- insect death ratio (Laodelphax striatellus): ≥ 70%

SMILES: CC[S+]([O-])c1cc2n(Cc3cnc(Cl)c(F)c3)c(C)cc(=O)n2n1 (stereo not drawn) [compound 254]
- insect death ratio (Myzus persicae): ≥ 70%
- insect death ratio (Laodelphax striatellus): ≥ 70%

SMILES: CCO/N=c1\cc(C)n(Cc2ccc(Cl)nc2)c2nc(SC)nn12 [compound 124]
- insect death ratio (Myzus persicae): ≥ 70%
- insect death ratio (Laodelphax striatellus): ≥ 70%

SMILES: O=c1ccn(Cc2ccc(Cl)nc2)c2cc(C(F)(F)F)nn12 [compound 215]
- insect death ratio (Myzus persicae): ≥ 70%
- insect death ratio (Laodelphax striatellus): ≥ 70%

SMILES: Cc1nc2n(Cc3ccc(Cl)nc3)c(C)cc(=O)n2n1 [compound 60]
- insect death ratio (Myzus persicae): ≥ 70%
- insect death ratio (Laodelphax striatellus): ≥ 70%

SMILES: C=CCOc1nc2n(Cc3ccc(Cl)nc3)c(C)cc(=O)n2n1 [compound 95]
- insect death ratio (Myzus persicae): ≥ 70%
- insect death ratio (Laodelphax striatellus): ≥ 70%

SMILES: COCCOc1nc2n(Cc3ccc(Cl)nc3)c(C)cc(=O)n2n1 [compound 118]
- insect death ratio (Myzus persicae): ≥ 70%
- insect death ratio (Laodelphax striatellus): ≥ 70%

SMILES: Cc1cc(=O)n2nc(OC(F)F)nc2n1Cc1ccc(Cl)nc1 [compound 269]
- insect death ratio (Myzus persicae): ≥ 70%
- insect death ratio (Laodelphax striatellus): ≥ 70%

SMILES: CCC(C)Sc1cc2n(Cc3ccc(Cl)nc3)c(C)cc(=O)n2n1 (stereo not drawn) [compound 339]
- insect death ratio (Myzus persicae): ≥ 70%
- insect death ratio (Laodelphax striatellus): ≥ 70%

SMILES: O=c1ccn(Cc2cnc(Cl)s2)c2ncnn12 [compound 196]
- insect death ratio (Myzus persicae): ≥ 70%
- insect death ratio (Laodelphax striatellus): ≥ 70%

SMILES: CS(=O)(=O)c1cc2n(Cc3ccc(Cl)nc3)ccc(=O)n2n1 [compound 232]
- insect death ratio (Myzus persicae): ≥ 70%
- insect death ratio (Laodelphax striatellus): ≥ 70%

SMILES: CCC[S+]([O-])c1cc2n(Cc3ccc(Cl)nc3)c(C)cc(=O)n2n1 (stereo not drawn) [compound 266]
- insect death ratio (Myzus persicae): ≥ 70%
- insect death ratio (Laodelphax striatellus): ≥ 70%

SMILES: Cc1cc(=O)n2nc(OC(=O)N(C)C)nc2n1Cc1ccc(Cl)nc1 [compound 94]
- insect death ratio (Myzus persicae): ≥ 70%
- insect death ratio (Laodelphax striatellus): ≥ 70%

SMILES: CCCCCSc1cc2n(Cc3ccc(Cl)nc3)c(C)cc(=O)n2n1 [compound 335]
- insect death ratio (Myzus persicae): ≥ 70%
- insect death ratio (Laodelphax striatellus): ≥ 70%

SMILES: Cc1cc(=O)n2nc(OCCC(F)(F)F)cc2n1Cc1ccc(Cl)nc1 [compound 331]
- insect death ratio (Myzus persicae): ≥ 70%
- insect death ratio (Laodelphax striatellus): ≥ 70%

SMILES: CCC(C)S(=O)(=O)c1cc2n(Cc3ccc(Cl)nc3)c(C)cc(=O)n2n1 (stereo not drawn) [compound 343]
- insect death ratio (Myzus persicae): ≥ 70%
- insect death ratio (Laodelphax striatellus): ≥ 70%

SMILES: COC(=O)/N=c1\cc(C)n(Cc2ccc(Cl)nc2)c2nc(SC)nn12 [compound 183]
- insect death ratio (Myzus persicae): ≥ 70%
- insect death ratio (Laodelphax striatellus): ≥ 70%

SMILES: CCCS(=O)(=O)c1cc2n(Cc3ccc(Cl)nc3)c(C)cc(=O)n2n1 [compound 267]
- insect death ratio (Myzus persicae): ≥ 70%
- insect death ratio (Laodelphax striatellus): ≥ 70%

SMILES: Cc1cc(=O)n2nc(C3CC3)nc2n1Cc1ccc(Cl)nc1 [compound 27]
- insect death ratio (Myzus persicae): ≥ 70%
- insect death ratio (Laodelphax striatellus): ≥ 70%

SMILES: Cc1cc(=O)n2nc([S+](C)[O-])nc2n1Cc1ccc(Cl)nc1 (stereo not drawn) [compound 26]
- insect death ratio (Myzus persicae): ≥ 70%
- insect death ratio (Laodelphax striatellus): ≥ 70%

SMILES: CSc1nc2n(Cc3ccc(C)nc3)c(C)cc(=O)n2n1 [compound 52]
- insect death ratio (Myzus persicae): ≥ 70%
- insect death ratio (Laodelphax striatellus): ≥ 70%

SMILES: CSc1cc2n(Cc3cnc(Cl)cc3Cl)c(C)cc(=O)n2n1 [compound 301]
- insect death ratio (Myzus persicae): ≥ 70%
- insect death ratio (Laodelphax striatellus): ≥ 70%

SMILES: Cc1cc(=O)n2nc(OC(C)C)nc2n1Cc1ccc(Cl)nc1 [compound 100]
- insect death ratio (Myzus persicae): ≥ 70%
- insect death ratio (Laodelphax striatellus): ≥ 70%

SMILES: CSc1nc2n(Cc3ccc(Br)nc3)c(C)cc(=O)n2n1 [compound 293]
- insect death ratio (Myzus persicae): ≥ 70%
- insect death ratio (Laodelphax striatellus): ≥ 70%

SMILES: Cc1cc(=O)n2nc([S+]([O-])CC(F)(F)F)nc2n1Cc1ccc(Cl)nc1 (stereo not drawn) [compound 189]
- insect death ratio (Myzus persicae): ≥ 70%
- insect death ratio (Laodelphax striatellus): ≥ 70%

SMILES: CCCCSc1cc2n(Cc3ccc(Cl)nc3)c(C)cc(=O)n2n1 [compound 338]
- insect death ratio (Myzus persicae): ≥ 70%
- insect death ratio (Laodelphax striatellus): ≥ 70%

SMILES: Cc1cc(=O)n2nc(C(F)(F)F)cc2n1Cc1ccc(Cl)nc1 [compound 157]
- insect death ratio (Myzus persicae): ≥ 70%
- insect death ratio (Laodelphax striatellus): ≥ 70%

SMILES: CSc1nc2n(Cc3ccc(Cl)nc3)c(C)cc(=O)n2n1 [compound 5, 4-((6-chloropyridin-3-yl)methyl)-5-methyl-2-(methylthio)-[1,2,4]triazolo[1,5-a]pyrimidin-7(4H)-one]
- insect death ratio (Myzus persicae): ≥ 70%
- insect death ratio (Laodelphax striatellus): ≥ 70%

SMILES: Cc1cc(=O)n2nc(C3CC3)cc2n1Cc1ccc(Cl)nc1 [compound 159]
- insect death ratio (Myzus persicae): ≥ 70%
- insect death ratio (Laodelphax striatellus): ≥ 70%

SMILES: CO/N=c1\cc(C)n(Cc2ccc(Cl)nc2)c2nc(SC)nn12 [compound 109]
- insect death ratio (Myzus persicae): ≥ 70%
- insect death ratio (Laodelphax striatellus): ≥ 70%

SMILES: CSc1nc2n(Cc3ccc(Cl)nc3)c(C)c(C)c(=O)n2n1 [compound 3]
- insect death ratio (Myzus persicae): ≥ 70%
- insect death ratio (Laodelphax striatellus): ≥ 70%

SMILES: Cc1cc(=O)n2ccnc2n1Cc1ccc(Cl)nc1 [compound 144]
- insect death ratio (Myzus persicae): ≥ 70%
- insect death ratio (Laodelphax striatellus): ≥ 70%

SMILES: Cc1cc(=O)n2nc(OCC(C)C)nc2n1Cc1ccc(Cl)nc1 [compound 114]
- insect death ratio (Myzus persicae): ≥ 70%
- insect death ratio (Laodelphax striatellus): ≥ 70%

SMILES: Cc1cc(=O)n2nc(Oc3ccccc3)nc2n1Cc1ccc(Cl)nc1 [compound 47]
- insect death ratio (Myzus persicae): ≥ 70%
- insect death ratio (Laodelphax striatellus): ≥ 70%

SMILES: CCCCCS(=O)(=O)c1cc2n(Cc3ccc(Cl)nc3)c(C)cc(=O)n2n1 [compound 337]
- insect death ratio (Myzus persicae): ≥ 70%
- insect death ratio (Laodelphax striatellus): ≥ 70%

SMILES: CSc1nc2n(Cc3cnc(Cl)nc3)c(C)cc(=O)n2n1 [compound 298]
- insect death ratio (Myzus persicae): ≥ 70%
- insect death ratio (Laodelphax striatellus): ≥ 70%

SMILES: Cc1cc(=O)n2nc(C(F)(F)F)cc2n1Cc1ccc(Br)nc1 [compound 246]
- insect death ratio (Myzus persicae): ≥ 70%
- insect death ratio (Laodelphax striatellus): ≥ 70%

SMILES: CCSc1cc2n(Cc3cnc(Cl)c(F)c3)c(C)cc(=O)n2n1 [compound 252]
- insect death ratio (Myzus persicae): ≥ 70%
- insect death ratio (Laodelphax striatellus): ≥ 70%

SMILES: Cc1cc(=O)n2nc(SC(F)(F)F)nc2n1Cc1ccc(Cl)nc1 [compound 142]
- insect death ratio (Myzus persicae): ≥ 70%
- insect death ratio (Laodelphax striatellus): ≥ 70%

SMILES: CSc1nc2n(Cc3cnc(Cl)c(C(F)(F)F)c3)c(C)cc(=O)n2n1 [compound 318]
- insect death ratio (Myzus persicae): ≥ 70%
- insect death ratio (Laodelphax striatellus): ≥ 70%

SMILES: Cc1cc(=O)n2nc(OCC(F)(F)F)nc2n1Cc1ccc(Cl)nc1 [compound 46]
- insect death ratio (Myzus persicae): ≥ 70%
- insect death ratio (Laodelphax striatellus): ≥ 70%

SMILES: CSc1nc2n(Cc3cnc(Cl)c(F)c3)c(C)cc(=O)n2n1 [compound 306]
- insect death ratio (Myzus persicae): ≥ 70%
- insect death ratio (Laodelphax striatellus): ≥ 70%

SMILES: CCSc1nc2n(Cc3ccc(Cl)nc3)c(C)cc(=O)n2n1 [compound 29]
- insect death ratio (Myzus persicae): ≥ 70%
- insect death ratio (Laodelphax striatellus): ≥ 70%

SMILES: Cc1cc(=O)n2nc(OCC(F)(F)F)cc2n1Cc1ccc(Cl)nc1 [compound 325, 4-((6-chloropyridin-3-yl)methyl)-2-(2,2,2-trifluoroethoxy)-5-methylpyrazolo[1,5-a]pyrimidin-7(4H)-one]
- insect death ratio (Myzus persicae): ≥ 70%
- insect death ratio (Laodelphax striatellus): ≥ 70%
